Experimental data: PubChem BioAssay (NCATS)
Inconclusive results, whose numbers are uncertain, are shown with a selection of clear calls. For part of these data: Potencies of inconclusive entries are doubtful fits and often do not repeat. The source made the active and inactive calls. Calls follow the shape of the dose curve; as a rule, active = well fitted curve in the direction sought with a large enough effect; inconclusive = small, poorly fitted or top-dose-only effect, or another doubt; inactive = no such curve, though single readings can be large; an effect the other way counts as inactive or inconclusive.

Chains of the proteins cited; added tags and fusions are not shown. Lines headed by an entry give the natural chain unless they say otherwise; changes in a name come on top.
UniProt Q99816: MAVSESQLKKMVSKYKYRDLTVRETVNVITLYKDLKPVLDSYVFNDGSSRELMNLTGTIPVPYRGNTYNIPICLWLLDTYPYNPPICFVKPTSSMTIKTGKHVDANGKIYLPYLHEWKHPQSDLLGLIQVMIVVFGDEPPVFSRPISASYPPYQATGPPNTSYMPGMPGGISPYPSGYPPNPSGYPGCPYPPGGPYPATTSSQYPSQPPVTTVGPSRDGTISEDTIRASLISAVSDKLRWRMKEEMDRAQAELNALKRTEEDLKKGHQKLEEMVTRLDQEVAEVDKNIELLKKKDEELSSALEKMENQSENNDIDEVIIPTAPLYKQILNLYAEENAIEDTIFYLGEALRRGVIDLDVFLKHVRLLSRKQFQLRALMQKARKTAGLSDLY
UniProt Q9Y253: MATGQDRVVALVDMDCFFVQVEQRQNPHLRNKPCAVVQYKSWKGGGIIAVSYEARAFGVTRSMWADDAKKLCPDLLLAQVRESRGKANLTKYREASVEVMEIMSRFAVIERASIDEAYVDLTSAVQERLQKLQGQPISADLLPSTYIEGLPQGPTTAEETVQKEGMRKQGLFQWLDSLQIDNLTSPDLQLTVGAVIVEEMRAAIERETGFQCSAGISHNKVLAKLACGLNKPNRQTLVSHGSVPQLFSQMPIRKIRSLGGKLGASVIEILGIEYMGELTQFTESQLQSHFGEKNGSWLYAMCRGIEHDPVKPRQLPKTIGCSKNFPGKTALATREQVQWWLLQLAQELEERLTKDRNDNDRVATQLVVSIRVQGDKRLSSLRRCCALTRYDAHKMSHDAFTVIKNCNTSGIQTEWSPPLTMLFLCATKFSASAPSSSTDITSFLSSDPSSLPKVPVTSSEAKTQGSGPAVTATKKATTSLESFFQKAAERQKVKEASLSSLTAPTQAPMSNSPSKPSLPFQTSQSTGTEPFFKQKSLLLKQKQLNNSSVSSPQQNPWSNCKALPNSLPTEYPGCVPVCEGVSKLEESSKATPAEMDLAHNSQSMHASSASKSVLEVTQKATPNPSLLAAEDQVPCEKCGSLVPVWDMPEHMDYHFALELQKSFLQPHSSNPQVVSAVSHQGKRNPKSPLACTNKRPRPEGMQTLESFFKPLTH
UniProt P36969, whole entry, looked up: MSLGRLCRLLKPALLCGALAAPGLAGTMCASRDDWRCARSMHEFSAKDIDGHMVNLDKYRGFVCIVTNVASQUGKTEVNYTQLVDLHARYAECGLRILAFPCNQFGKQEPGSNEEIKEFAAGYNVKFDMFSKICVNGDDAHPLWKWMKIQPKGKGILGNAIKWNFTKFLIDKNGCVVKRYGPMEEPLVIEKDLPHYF

Legend:
[1] = molecular target: Tumor susceptibility gene 101 protein (Homo sapiens) (UniProt Q99816); test: qHTS Assay for Iinhibitors of HIV-1 Budding by Blocking the Interaction of PTAP/TSG101: Hit Validation (AID 651600); also: nearly all actives have a fitted effect of over 70% in size
Method in brief: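 Compounds are added to the Tsg101 binding domain (10 uM final) in pH 7.5 HEPES buffer. FITC-PTAP peptide follows at 50 nM final. After 20 min at r.t., polarized FITC emission is measured.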

[2] = molecular target: DNA polymerase eta (Homo sapiens) (UniProt Q9Y253); test: qHTS for Inhibitors of Polymerase Eta: Confirmatory Assay for Cherry-picked Compounds (AID 720502); conditions: Pol eta primer extension, TAMRA/BHQ fluorescence, 10 min; also: potency is read from the fitted curve at half-maximal effect
Method in brief: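 Pol eta 10 nM; substrate 50 nM final (unlabeled primer, TAMRA reporter, BHQ-2 template); preincub. 15 min RT; reads t=0 and t=10 min at ex525/em598.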

[3] = system: Zika virus NS2B-NS3 protease (unlinked complex); test: Primary screen GU Rhodamine qHTS for Zika virus inhibitors: Unlinked NS2B-NS3 protease assay (AID 1347159); also: potency is read from the fitted curve at half-maximal effect; nearly all actives have a fitted effect of over 60% in size
Method in brief: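 A qHTS format was used, with compound concentrations ranging up to 114 microM. Each compound was preincubated with 25 nM NS2B-NS3 protease, and the substrate was then added at 1.5 microM. Curves were fitted with a 4-parameter Hill model.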

[4] = system: Zika virus NS2B-NS3 protease (linked construct); test: Primary screen NINDS Rhodamine qHTS for Zika virus inhibitors (AID 1347160); conditions: activity change, negative = inhibition: at 57.1 µM (top of the series) unless noted; also: potency is read from the fitted curve at half-maximal effect; nearly all actives have a fitted effect of over 55% in size
Method in brief: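 Kinetic fluorescence (Ex 480 nm, Em 540 nm) over 15 min with 1.5 microM Rhodamine110 peptide and 25 nM linked protease.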

[5] = Primary qHTS for inhibitors of nuclear receptor binding SET domain protein 2 (NSD2) in an isogenic RCH-ACV NSD2 p.E1099K mutant (9B) (AID 1645876); also: potency is read from the fitted curve at half-maximal effect; nearly all actives have a fitted effect of over 70% in size
[6] = Primary qHTS for inhibitors of nuclear receptor binding SET domain protein 2 (NSD2) in an RCH-ACV wild type WT cells (2C) (AID 1645877); conditions: activity change, negative = cell killing: at 44.9 µM (top of the series) unless noted; also: potency is read from the fitted curve at half-maximal effect; nearly all actives have a fitted effect of over 70% in size
[7] = molecular target: Phospholipid hydroperoxide glutathione peroxidase GPX4 (Homo sapiens) (UniProt P36969); test: Primary qHTS Assay for Inhibitors of Recombinant Selenoprotein Glutathione Peroxidase 4 (GPX4) (AID 1845192); also: potency is read from the fitted curve at half-maximal effect; nearly all actives have a fitted effect of over 65% in size
Method in brief: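 GR-coupled assay: recombinant GPX4 preincubated 30 min with compound at room temperature; final 200 nM GPX4, 1 mM GSH, 0.5 mM cumene hydroperoxide, 0.5 mM NADPH, 100 nM GR, 0.01% BSA, pH 7.5 Tris. NADPH fluorescence (340/450 nm) read at 0 and 15 min.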

[8] = Primary fluorescence-based thiol-reactive (MSTI) qHTS assay for identification of artifact compounds. (AID 1845221); also: potency is read from the fitted curve at half-maximal effect; nearly all actives have a fitted effect of over 65% in size
Method in brief: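 One-hour, room-temperature, dark incubation of compound with 4 uM MSTI in PBS (pH 7.4, 2% DMSO) precedes a fluorescence read at 525 nm excitation, 598 nm emission; Hill-equation fitting yields concentration-response values.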

[9] = Primary redox qHTS assay for identification of artifact compounds. (AID 1845223); conditions: Amplex Red/HRP redox cycling with DTT, fluorescence; series mostly up to 53.8 µM
Method in brief: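 Amplex Red (25 uM) and HRP (250 mU/mL) in HBSS, with compounds for 15 min, then 250 uM DTT for 30 min, room temperature, dark. Fluorescence 525/598 nm read; normalized to DMSO and 10 uM DA3003; Hill fit.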

HEK293 = test: Cytotoxic Profiling of Annotated Libraries Using Quantitative High-Throughput Screening (AID 1296008); conditions: Five cell lines viability, CellTiter-Glo ATP luminescence, 48-72 h; max response: active compounds read low; also: potency is read from the fitted curve at half-maximal effect; nearly all actives have a fitted effect of over 60% in size
Method in brief: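 Cells exposed to compounds for 48 or 72 hr at 37 degrees Celsius. Viability read as ATP-coupled luminescence with CellTiter-Glo after 10 min at room temperature.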

SKOV3 = test: Primary qHTS to identify gynecologic anti-cancer compounds using libraries of approved drugs and bioactive compounds (AID 1345084); conditions: Gynecologic cancer cell panel viability, ATPlite luminescence, 48 h; series mostly up to 57.5 µM; also: nearly all actives have a fitted effect of over 55% in size; also: potency is read from the fitted curve at half-maximal effect
Method in brief: (§1)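 In this quantitative HTS, cell killing is estimated from loss of ATP-dependent luciferase light. Cells see five compound concentrations over a 48 h exposure.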

Tov-21-G = test: as above; conditions: Gynecologic cancer cell panel viability, ATPlite luminescence, 48 h; series mostly up to 57.5 µM
Method in brief: as §1

Measured: Potency

CC[C@H](C)/C=C(C)/C=C/C1=CC2=CC(=O)[C@]3(C)OC(=O)[C@@H](C(C)=O)[C@@H]3C2=CO1
inconclusive: [2] 84.9 µM [inhibitor, single point] | [4] 14.1 µM [inhibitor, single point] | [5] 20.1 µM [inhibitor, single point] | [6] 17.9 µM [inhibitor, partial curve, poor fit] | [7] 22.2 µM [inhibitor, partial curve, poor fit] | [8] 1.85 µM [inhibitor, full curve] | HEK293 = 20.2 µM [inhibitor, single point] | Tov-21-G 39.8 µM [rising, partial curve, poor fit]
inactive: [1] | [9] | SKOV3
active: [3] 10 µM
